# Measured values as given in the supplement of paper PMC8728848.
# Some of the results follow.
# B1: SfaEH (Escherichia coli), Q1RDG5 (protein)
# chain: LLCRNNQTGQVFNSGDTSFRVNVSPVVQYDKSISVLDLSQLVSCQNEDSTGQNYDYLKILKGSGFSPALDTKTYGRLDFTSRPTGYARQLPLQFDLQVTEAFYQYGVWKPFPAKLYLYPAPGVFGKVINNGDLLATLYVNKFSTKGQEAGERNFTWRFYATNDVYIQTGTCRVSSNNVKVDLPSYPGGPVTVPLTVRCDQTQSVSYTLSGPVTGSGNTVFANTAASGSGGVGIQLSDNVGPVPAGQPRSLGQVGSSPVSLGLKASYALTGQASPTPGAVQSVINVTFSYN
# Tests used:
# Experiment in all cases: glycan array binding signal (z-score within array); higher = stronger binding
# Settings in all cases: glycan notation: IUPAC condensed, linker removed
# [1] = target: Fuc(a1-2)[Gal(a1-4)]Gal(b1-4)GlcNAc
# In short: (§1)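 Columns mapping to the same glycan were averaged after glycan names were converted to IUPAC-condensed notation. The data come from 3228 arrays in the Consortium for Functional Glycomics database, limited to those with an available protein sequence. Binding is reported as a within-array Z-score averaged across arrays of one protein sequence and across linkers.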
# [2] = target: Fuc(a1-2)[GalNAc(a1-3)]Gal
# In short: as §1
# [3] = target: Fuc(a1-2)[GalNAc(a1-3)]Gal(b1-3)GalNAc(a1-3)[Fuc(a1-2)]Gal(b1-4)GlcNAc
# In short: as §1
# [4] = target: Fuc(a1-2)[GalNAc(a1-3)]Gal(b1-3)GalNAc(b1-3)Gal(a1-4)Gal(b1-4)Glc
# In short: as §1
# [5] = target: Fuc(a1-2)[GalNAc(a1-3)]Gal(b1-3)GlcNAc
# In short: as §1
# [6] = target: Fuc(a1-2)[GalNAc(a1-3)]Gal(b1-3)GlcNAc(b1-2)Man(a1-3)[Fuc(a1-2)[GalNAc(a1-3)]Gal(b1-3)GlcNAc(b1-2)Man(a1-6)]Man(b1-4)GlcNAc(b1-4)GlcNAc
# In short: as §1
# [7] = target: Fuc(a1-2)[GalNAc(a1-3)]Gal(b1-3)GlcNAc(b1-2)Man(a1-3)[Fuc(a1-2)[GalNAc(a1-3)]Gal(b1-3)GlcNAc(b1-2)Man(a1-6)]Man(b1-4)GlcNAc(b1-4)[Fuc(a1-6)]GlcNAc
# In short: as §1
# [8] = target: Fuc(a1-2)[GalNAc(a1-3)]Gal(b1-3)GlcNAc(b1-3)GalNAc
# In short: as §1
# [9] = target: Fuc(a1-2)[GalNAc(a1-3)]Gal(b1-3)GlcNAc(b1-6)GalNAc
# In short: as §1
# [10] = target: Fuc(a1-2)[GalNAc(a1-3)]Gal(b1-4)Glc
# In short: as §1
# [11] = target: Fuc(a1-2)[GalNAc(a1-3)]Gal(b1-4)GlcNAc
# In short: as §1
# [12] = target: Fuc(a1-2)[GalNAc(a1-3)]Gal(b1-4)GlcNAc(b1-2)Man
# In short: as §1
# [13] = target: Fuc(a1-2)[GalNAc(a1-3)]Gal(b1-4)GlcNAc(b1-2)Man(a1-3)[Fuc(a1-2)[GalNAc(a1-3)]Gal(b1-4)GlcNAc(b1-2)Man(a1-6)]Man(b1-4)GlcNAc(b1-4)GlcNAc
# In short: as §1
# [14] = target: Fuc(a1-2)[GalNAc(a1-3)]Gal(b1-4)GlcNAc(b1-2)Man(a1-3)[Fuc(a1-2)[GalNAc(a1-3)]Gal(b1-4)GlcNAc(b1-2)Man(a1-6)]Man(b1-4)GlcNAc(b1-4)[Fuc(a1-6)]GlcNAc
# In short: as §1
# [15] = target: Fuc(a1-2)[GalNAc(a1-3)]Gal(b1-4)GlcNAc(b1-3)Gal(b1-4)GlcNAc
# In short: as §1
# [16] = target: Fuc(a1-2)[GalNAc(a1-3)]Gal(b1-4)GlcNAc(b1-3)Gal(b1-4)GlcNAc(b1-3)Gal(b1-4)GlcNAc
# In short: as §1
# [17] = target: Fuc(a1-2)[GalNAc(a1-3)]Gal(b1-4)GlcNAc(b1-3)GalNAc
# In short: as §1
# [18] = target: Fuc(a1-2)[GalNAc(a1-3)]Gal(b1-4)GlcNAc(b1-3)[Fuc(a1-2)[GalNAc(a1-3)]Gal(b1-4)GlcNAc(b1-6)]GalNAc
# In short: as §1
# [19] = target: Fuc(a1-2)[GalNAc(a1-3)]Gal(b1-4)GlcNAc(b1-6)GalNAc
# In short: as §1
# [20] = target: Fuc(a1-2)[GalNAc(a1-3)]Gal(b1-4)[Fuc(a1-3)]GlcNAc
# In short: as §1
# [21] = target: Fuc(a1-2)[GalNAc(a1-3)]Gal(b1-4)[Fuc(a1-3)]GlcNAc(b1-3)GalNAc
# In short: as §1
# [22] = target: Fuc(a1-2)[GalNAc(a1-4)]Gal(b1-4)GlcNAc
# In short: as §1
# [23] = target: Fuc(a1-2)[GalNAc(b1-3)]Gal
# In short: as §1
# Fuc(a1-3)GlcNAc = target: Fuc(a1-3)GlcNAc
# In short: as §1
# [24] = target: Fuc(a1-3)[Gal(b1-4)]Glc6S
# In short: as §1
# [25] = target: Fuc(a1-3)[Gal(b1-4)]GlcNAc
# In short: as §1
# [26] = target: Fuc(a1-3)[Gal(b1-4)]GlcNAc(b1-2)Man
# In short: as §1
# [27] = target: Fuc(a1-3)[Gal(b1-4)]GlcNAc(b1-2)Man(a1-3)[Fuc(a1-3)[Gal(b1-4)]GlcNAc(b1-2)Man(a1-6)]Man(b1-4)GlcNAc(b1-4)GlcNAc
# In short: as §1
# [28] = target: Fuc(a1-3)[Gal(b1-4)]GlcNAc(b1-2)Man(a1-3)[Fuc(a1-3)[Gal(b1-4)]GlcNAc(b1-2)Man(a1-6)]Man(b1-4)GlcNAc(b1-4)[Fuc(a1-6)]GlcNAc
# In short: as §1
# [29] = target: Fuc(a1-3)[Gal(b1-4)]GlcNAc(b1-3)Gal(b1-3)[Fuc(a1-4)]GlcNAc
# In short: as §1
# [30] = target: Fuc(a1-3)[Gal(b1-4)]GlcNAc(b1-3)GalNAc
# In short: as §1
# [31] = target: Fuc(a1-3)[Gal(b1-4)]GlcNAc(b1-4)Gal(b1-4)[Fuc(a1-3)]GlcNAc
# In short: as §1
# [32] = target: Fuc(a1-3)[Gal(b1-4)]GlcNAc(b1-4)Gal(b1-4)[Fuc(a1-3)]GlcNAc(b1-4)Gal(b1-4)[Fuc(a1-3)]GlcNAc
# In short: as §1
# [33] = target: Fuc(a1-3)[Gal(b1-4)]GlcNAc(b1-6)GalNAc
# In short: as §1
# [34] = target: Fuc(a1-3)[Gal(b1-4)]GlcNAc(b1-6)[Gal(b1-3)GlcNAc(b1-3)]Gal(b1-4)Glc
# In short: as §1
# [35] = target: Fuc(a1-3)[Gal(b1-4)]GlcNAc6S
# In short: as §1
# [36] = target: Fuc(a1-3)[Gal3S(b1-4)]Glc
# In short: as §1
# [37] = target: Fuc(a1-3)[Gal3S(b1-4)]GlcNAc
# In short: as §1
binder,measurement,setting,value
B1,glycan array binding signal (z-score),[1],0.037
same,glycan array binding signal (z-score),[2],0.063
same,glycan array binding signal (z-score),[3],-1.39
same,glycan array binding signal (z-score),[4],-0.835
same,glycan array binding signal (z-score),[5],-0.966
same,glycan array binding signal (z-score),[6],-0.917
same,glycan array binding signal (z-score),[7],-0.875
same,glycan array binding signal (z-score),[8],-0.891
same,glycan array binding signal (z-score),[9],-0.775
same,glycan array binding signal (z-score),[10],-0.194
same,glycan array binding signal (z-score),[11],-0.739
same,glycan array binding signal (z-score),[12],0.567
same,glycan array binding signal (z-score),[13],0.141
same,glycan array binding signal (z-score),[14],-0.857
same,glycan array binding signal (z-score),[15],-0.712
same,glycan array binding signal (z-score),[16],-0.209
same,glycan array binding signal (z-score),[17],-0.41
same,glycan array binding signal (z-score),[18],-0.158
same,glycan array binding signal (z-score),[19],-0.837
same,glycan array binding signal (z-score),[20],-0.13
same,glycan array binding signal (z-score),[21],0.359
same,glycan array binding signal (z-score),[22],0.235
same,glycan array binding signal (z-score),[23],0.138
same,glycan array binding signal (z-score),Fuc(a1-3)GlcNAc,-0.598
same,glycan array binding signal (z-score),[24],-0.568
same,glycan array binding signal (z-score),[25],-0.018
same,glycan array binding signal (z-score),[26],-0.256
same,glycan array binding signal (z-score),[27],-0.321
same,glycan array binding signal (z-score),[28],-0.049
same,glycan array binding signal (z-score),[29],-0.789
same,glycan array binding signal (z-score),[30],-0.626
same,glycan array binding signal (z-score),[31],-0.544
same,glycan array binding signal (z-score),[32],0.511
same,glycan array binding signal (z-score),[33],-0.1
same,glycan array binding signal (z-score),[34],1.44
same,glycan array binding signal (z-score),[35],0.627
same,glycan array binding signal (z-score),[36],-0.496
same,glycan array binding signal (z-score),[37],-0.127

# Shown tab-delimited: part of the list above.
binder	measurement	setting	value
B1	glycan array binding signal (z-score)	[18]	-0.158
same	glycan array binding signal (z-score)	[19]	-0.837
